Assay results: paper PMC5013666
No constants are given. Whether binding was seen depends on the method and setting. In cells and extracts the contact can be indirect. Some binding calls cover weakened binding; strength is not graded here. Where a sequence is shown, tags or fusion partners need not be part of it.

The chains behind the UniProt entries cited, without tags or fusion partners. Where a name states a change or a piece, a line headed by the entry shows the natural chain unless it says otherwise. A line that says so, or that is headed by a name, gives the form on record, which may keep a tag or linker. Residues count along the entry.
UniProt P06213: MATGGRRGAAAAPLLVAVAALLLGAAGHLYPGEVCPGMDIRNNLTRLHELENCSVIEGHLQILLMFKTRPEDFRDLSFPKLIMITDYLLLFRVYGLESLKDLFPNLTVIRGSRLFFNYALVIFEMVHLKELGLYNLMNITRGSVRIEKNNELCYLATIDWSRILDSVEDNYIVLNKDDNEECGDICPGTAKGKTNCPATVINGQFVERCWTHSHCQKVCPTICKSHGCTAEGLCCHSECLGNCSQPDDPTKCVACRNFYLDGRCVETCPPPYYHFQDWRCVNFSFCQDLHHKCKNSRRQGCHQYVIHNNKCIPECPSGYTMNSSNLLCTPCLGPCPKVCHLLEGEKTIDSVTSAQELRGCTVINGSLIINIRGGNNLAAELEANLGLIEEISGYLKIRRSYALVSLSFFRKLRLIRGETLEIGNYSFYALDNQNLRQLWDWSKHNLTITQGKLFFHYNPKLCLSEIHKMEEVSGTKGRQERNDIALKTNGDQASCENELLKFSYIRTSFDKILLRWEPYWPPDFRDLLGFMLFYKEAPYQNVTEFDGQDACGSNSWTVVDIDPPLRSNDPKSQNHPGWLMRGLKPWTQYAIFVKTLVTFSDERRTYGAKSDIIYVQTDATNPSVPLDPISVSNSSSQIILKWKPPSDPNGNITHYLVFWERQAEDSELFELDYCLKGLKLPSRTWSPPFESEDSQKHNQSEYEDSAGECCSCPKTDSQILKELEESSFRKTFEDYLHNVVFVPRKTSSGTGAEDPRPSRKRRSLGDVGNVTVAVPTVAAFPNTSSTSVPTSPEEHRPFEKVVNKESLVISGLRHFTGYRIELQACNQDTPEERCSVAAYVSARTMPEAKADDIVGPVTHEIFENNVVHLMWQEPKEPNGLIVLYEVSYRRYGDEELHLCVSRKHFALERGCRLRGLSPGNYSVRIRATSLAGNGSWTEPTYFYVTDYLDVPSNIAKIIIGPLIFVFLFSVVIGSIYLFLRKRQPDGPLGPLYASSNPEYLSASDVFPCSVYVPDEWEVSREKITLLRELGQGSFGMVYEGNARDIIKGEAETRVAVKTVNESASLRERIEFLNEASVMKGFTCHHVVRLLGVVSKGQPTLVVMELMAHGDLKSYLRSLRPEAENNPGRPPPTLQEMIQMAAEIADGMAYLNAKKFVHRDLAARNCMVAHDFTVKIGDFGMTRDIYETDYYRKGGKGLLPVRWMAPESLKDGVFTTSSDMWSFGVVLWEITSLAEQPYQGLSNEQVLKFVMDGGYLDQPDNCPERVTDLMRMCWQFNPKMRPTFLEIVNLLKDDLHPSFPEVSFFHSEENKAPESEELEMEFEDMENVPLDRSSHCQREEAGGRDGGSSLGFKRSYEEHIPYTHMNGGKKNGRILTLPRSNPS
INSR-GFP: residues 28-1382 of P06213
INSRβ (insulin receptor beta subunit), endogenous (human (endogenous in HeLa and HepG2)): residues 763-1382 of P06213
INSR K1079R-GFP (P06213, form named): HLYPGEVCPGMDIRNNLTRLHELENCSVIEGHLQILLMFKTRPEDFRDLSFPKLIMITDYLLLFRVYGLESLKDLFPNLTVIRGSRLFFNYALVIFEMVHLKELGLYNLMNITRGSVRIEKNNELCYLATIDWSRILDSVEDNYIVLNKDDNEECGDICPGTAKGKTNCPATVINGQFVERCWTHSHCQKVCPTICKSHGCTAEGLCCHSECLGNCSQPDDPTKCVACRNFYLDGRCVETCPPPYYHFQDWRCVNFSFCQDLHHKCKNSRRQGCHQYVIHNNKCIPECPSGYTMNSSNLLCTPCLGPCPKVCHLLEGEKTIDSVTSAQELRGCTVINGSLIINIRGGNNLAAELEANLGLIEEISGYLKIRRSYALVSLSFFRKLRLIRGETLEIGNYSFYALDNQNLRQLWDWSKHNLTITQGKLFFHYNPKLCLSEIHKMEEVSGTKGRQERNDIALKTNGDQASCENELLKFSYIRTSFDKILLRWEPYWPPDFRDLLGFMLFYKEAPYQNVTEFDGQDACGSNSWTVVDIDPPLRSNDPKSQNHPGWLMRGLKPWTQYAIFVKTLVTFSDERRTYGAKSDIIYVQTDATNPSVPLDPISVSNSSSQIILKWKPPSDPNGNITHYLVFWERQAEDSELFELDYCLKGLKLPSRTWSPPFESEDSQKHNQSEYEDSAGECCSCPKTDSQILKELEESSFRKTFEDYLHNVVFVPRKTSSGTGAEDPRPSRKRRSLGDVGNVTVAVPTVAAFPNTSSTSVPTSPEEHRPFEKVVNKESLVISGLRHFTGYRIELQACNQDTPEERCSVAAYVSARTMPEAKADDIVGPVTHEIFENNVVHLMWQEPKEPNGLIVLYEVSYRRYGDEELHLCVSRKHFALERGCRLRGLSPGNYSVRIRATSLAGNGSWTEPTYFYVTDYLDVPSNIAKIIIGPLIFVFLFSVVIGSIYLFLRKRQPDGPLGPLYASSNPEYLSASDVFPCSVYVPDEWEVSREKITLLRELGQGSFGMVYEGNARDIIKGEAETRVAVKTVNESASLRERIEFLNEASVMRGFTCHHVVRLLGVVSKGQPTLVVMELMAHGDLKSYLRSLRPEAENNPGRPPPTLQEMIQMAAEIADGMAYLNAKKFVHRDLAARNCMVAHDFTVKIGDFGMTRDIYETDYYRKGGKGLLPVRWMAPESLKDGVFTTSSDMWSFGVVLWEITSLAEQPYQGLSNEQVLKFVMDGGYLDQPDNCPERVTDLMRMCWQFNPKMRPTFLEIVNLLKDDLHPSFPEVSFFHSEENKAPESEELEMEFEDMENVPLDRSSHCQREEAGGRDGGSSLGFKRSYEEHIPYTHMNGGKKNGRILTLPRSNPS

B1: MARCH1-YFP (enzyme, UniProt Q8TCQ1 1-289)
chain: MLGWCEAIARNPHRIPNNTRTPEISGDLADASQTSTLNEKSPGRSASRSSNISKASSPTTGTAPRSQSRLSVCPSTQDICRICHCEGDEESPLITPCRCTGTLRFVHQSCLHQWIKSSDTRCCELCKYDFIMETKLKPLRKWEKLQMTTSERRKIFCSVTFHVIAITCVVWSLYVLIDRTAEEIKQGNDNGVLEWPFWTKLVVVAIGFTGGLVFMYVQCKVYVQLWRRLKAYNRVIFVQNCPDTAKKLEKNFSCNVNTDIKDAVVVPVPQTGANSLPSAEGGPPEVVSV
B2: MARCH1, endogenous (enzyme, UniProt Q8TCQ1 1-289)
chain: MLGWCEAIARNPHRIPNNTRTPEISGDLADASQTSTLNEKSPGRSASRSSNISKASSPTTGTAPRSQSRLSVCPSTQDICRICHCEGDEESPLITPCRCTGTLRFVHQSCLHQWIKSSDTRCCELCKYDFIMETKLKPLRKWEKLQMTTSERRKIFCSVTFHVIAITCVVWSLYVLIDRTAEEIKQGNDNGVLEWPFWTKLVVVAIGFTGGLVFMYVQCKVYVQLWRRLKAYNRVIFVQNCPDTAKKLEKNFSCNVNTDIKDAVVVPVPQTGANSLPSAEGGPPEVVSV
B3: MARCH1-Myc (enzyme, UniProt Q8TCQ1 1-289)
chain: MLGWCEAIARNPHRIPNNTRTPEISGDLADASQTSTLNEKSPGRSASRSSNISKASSPTTGTAPRSQSRLSVCPSTQDICRICHCEGDEESPLITPCRCTGTLRFVHQSCLHQWIKSSDTRCCELCKYDFIMETKLKPLRKWEKLQMTTSERRKIFCSVTFHVIAITCVVWSLYVLIDRTAEEIKQGNDNGVLEWPFWTKLVVVAIGFTGGLVFMYVQCKVYVQLWRRLKAYNRVIFVQNCPDTAKKLEKNFSCNVNTDIKDAVVVPVPQTGANSLPSAEGGPPEVVSV

Legend:
[1] = biological target: INSRβ (insulin receptor beta subunit), endogenous (human (endogenous in HeLa and HepG2)) (UniProt P06213); assay: co-IP; HeLa or HepG2 cells, untransfected or transfected with MARCH1 or MARCH1 deletion constructs, 5 μM MG132 overnight; IP Lysis buffer (Pierce); immunoprecipitation with IgG or anti-INSRβ antibody and protein G-agarose beads; immunoblot
[2] = biological target: INSR K1079R-GFP (human) (UniProt P06213); assay: co-IP; HeLa cells transfected with INSR-GFP or INSR K1079R-GFP along with MARCH1-Myc; INSRβ-GFP immunoprecipitated with IgG or anti-GFP antibody; immunoblot
[3] = biological target: INSR-GFP (human) (UniProt P06213); assay: as above

Binder | binding [1] | binding [2] | binding [3]
B1 | binds | – | –
B2 | binds | – | –
B3 | – | binds | binds
